# PubChem BioAssay AID743121, NCATS – 2013
# Assay: 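Knock-downs that sensitise breast cancer cells to camptothecin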 (primary screen)
# Cell system: MDA-MB-231 cells, a human breast cancer line
# Knock-down reagent: single siRNA against human genes, 20 nM siRNA (0.8 pmol per well)
# Timing: 120 h (drug added 48 h after transfection, read 72 h later)
# Conditions: camptothecin 20 nM (about EC30) for 72 h; vehicle 0.1% DMSO in parallel plates
# Measured: 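CellTiter-Glo ATP signal, scaled to control siRNA as percent viability; sensitisation given as log2 of untreated divided by camptothecin-treated viability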
# Scale: log2 vehicle/camptothecin viability: higher = stronger sensitisation to camptothecin; viability with camptothecin and viability without drug: higher = more viable cells
# Rule for the call: 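Active genes have an RSA gene-level p-value below 0.001, computed from the ratios of their separate siRNAs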
# In all, the deposit lists about 26,000 reagents; below is a random part of them. 167 of them (0.63%) count as active. 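Calls are per gene from RSA p-values that are not deposited; an individual active-marked siRNA can sensitise only weakly.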 A number with no mark means an inactive call. The numbers tell different reagents against one gene apart. Reagent sequences are not shown.
gene,siRNA no.,log2 vehicle/camptothecin viability,viability with camptothecin (% of control),viability without drug (% of control)
CARM1,1,0.204,56,64.6
CARM1,2,-0.127,87.5,80.2
CARM1,3,0.101,116,124
CARM1,4,0.872,30.9,56.5
PLXNC1,1,0.882,12.6,23.3
PLXNC1,2,-0.374,121,93.2
PLXNC1,3,0.769,35.5,60.4
RALA,1,0.155,68.8,76.6
RALA,2,-0.0701,72.1,68.7
RALA,3,-0.021,106,105
RALA,4,0.0507,99,103
TUSC3,1,-0.184,105,92.2
TUSC3,2,-0.543,105,72
TUSC3,3,-0.235,96.6,82.1
TUSC3,4,-0.198,84.1,73.3
VSIG2,1,-0.307,71.7,57.9
VSIG2,2,0.113,18.5,20.1
VSIG2,3,-0.0325,27.9,27.3
CYP4F11,1,0.137,74.1,81.4
CYP4F11,2,0.321,19.7,24.6
CYP4F11,3,0.184,21.3,24.2
CYP4F11,4,-0.0703,107,102
CD300LG,1,-0.494,86.6,61.5
CD300LG,2,-0.0627,85,81.4
CD300LG,3,-0.247,46.8,39.4
CD300LG,4,-0.361,85.8,66.8
CACNB4,1,0.571,64.7,96.2
CACNB4,2,-0.219,45.8,39.3
CACNB4,3,-0.685,97.6,60.7

Only “viability without drug (% of control)” (6 entries from above):
TUSC3 #1: 92.2
TUSC3 #2: 72
TUSC3 #3: 82.1
TUSC3 #4: 73.3
VSIG2 #1: 57.9
VSIG2 #2: 20.1

The listing continues:
gene,siRNA no.,log2 vehicle/camptothecin viability,viability with camptothecin (% of control),viability without drug (% of control)
SLK,1,-0.569,68.6,46.3
SLK,2,-0.0747,85.7,81.4
SLK,3,0.991,19.4,38.5
SLK,4,-0.235,32.1,27.3
UCHL5,1,0.17,81.4,91.5
UCHL5,2,-0.259,24.9,20.8
UCHL5,3,-0.108,56.1,52
UCHL5,4,0.39,77,101
MAP3K4,1,-0.284,104,85.8
MAP3K4,2,-0.736,67.1,40.3
MAP3K4,3,-0.16,120,107
MAP3K4,4,-0.124,86.4,79.3
CENPBD1P,1,-0.308,78.3,63.2
CENPBD1P,2,-0.478,74.2,53.3
CENPBD1P,3,-0.533,45.6,31.5
CENPBD1P,4,0.00581,79.9,80.2
APTX,1,-0.232,51.7,44
APTX,2,-0.516,122,85.4
APTX,3,0.00798,96.4,96.9
F2RL1,1,-0.314,57.7,46.4
F2RL1,2,-0.0113,44.7,44.3
F2RL1,3,-0.315,51.9,41.7
F2RL1,4,-0.271,81.1,67.2
GRIP2,1,0.0287,51.9,53
GRIP2,2,0.279,41.7,50.6
GRIP2,3,-0.0115,57.4,57
KCNB2,1,0.279,68.3,82.9
KCNB2,2,-0.381,70.7,54.3
KCNB2,3,-0.262,81.5,68
KIF23,1,0.239,58.2,68.7
KIF23,2,-0.323,13.8,11
KIF23,3,-0.245,57.3,48.4
ABCA8,1,0.151,73.9,82.1
ABCA8,2,0.114,83.5,90.4
ABCA8,3,-0.287,108,88.3
ABCA8,4,-0.0721,63.2,60.1
ELOC,1,0.558,33.8,49.8
ELOC,2,-0.293,64,52.2
ELOC,3,0.237,78.3,92.3
ELOC,4,0.286,96.1,117
